This test is described as follows: qHTS Assay for Lipid Storage Modulators in Drosophila S3 Cells.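 On cell number change: cells counted by Cell Tracker Red CMTPX staining in the red channel.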 To be noted: BODIPY lipid droplet fluorescence, 18-24 h; for cell number change: measured here: cell count max response, cells fed with added oleic acid. The procedure, abridged: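 Drosophila S3 cells got compounds at several concentrations plus oleic acid (400 uM solution). Laser-scanning cytometry with 488 nm excitation read lipid droplets at 500-530 nm and cells at 575-640 nm. Percent activity was relative to 20 uM Triacsin C.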
(In general: qHTS replaces the single test concentration by a dilution series.)

The mark [1] stands for this setting: measured here: cell number channel AC50, cells fed with added oleic acid.
[2] abbreviates: measured here: lipid fluorescence (Fed channel) AC50, cells fed with added oleic acid.

As usually defined, the AC50 is the midpoint of the concentration-response curve, whichever way the signal moves.

Molecules are shown by their SMILES. The list shows a part of the results. Shown are side measurements of this screen, not its main read-out; they come without a call. The list favours compounds with an active or inconclusive main result. Words in brackets tell the shape of the fitted curve; partial curves, single points and poor fits give uncertain potencies.

Turning to `CCOc1ccc(C(=O)OCC(=O)Nc2ccc3c(c2)OCCO3)cc1OC`, the cell number change was 15%. Moreover, under setting [1], the AC50 was 2.06 µM [rising, partial curve]. Besides, under setting [2], the half-maximal activity concentration (AC50) is 4.11 µM [rising, full curve, poor fit]. Consider `COc1ccc(-n2ccc3ccccc32)cc1`, for which the cell number change was found to be 45%. Moreover, the AC50 under setting [1] is 0.259 µM [rising, partial curve, poor fit]. As for `COc1ccccc1NS(=O)(=O)c1cc(C(=O)NCc2ccncc2)ccc1C`, the cell number change turned out to be 33.7%. In addition, the half-maximal activity concentration (AC50) under setting [1] was 29.1 µM [rising, single point]. The half-maximal activity concentration (AC50) under setting [2] is 0.58 µM [rising, single point]. Take `CCOC(=O)C1=C(N)Oc2cc(O)ccc2C1c1cccc(Cl)c1` (stereo not drawn): the cell number change was -37.8%. Besides, the concentration at half-maximal activity (AC50) under setting [1] was 23.1 µM [falling, single point]. With `CCOc1ccc(NC(=S)Nc2ccc3nsnc3c2)cc1`, the cell number change was -15.9%. Under setting [2], the AC50 is 8.2 µM [falling, partial curve].

In the case of `N#Cc1ccccc1OCC(=O)OCC(=O)NC1CCCCCC1`, the cell number change is -4.45%. For the same compound, under setting [2], the AC50 was 29.1 µM [falling, single point]. In the case of `Clc1cccc(Sc2ccc(-c3ccccn3)s2)c1`, the cell number change is -45.7%. For the same compound, under setting [1], the AC50 is 23.1 µM [falling, single point].

As for `Cc1nc2ccc(NC(=O)c3ccc(F)c(S(=O)(=O)N4CCOCC4)c3)cc2s1`, the cell number change is -15.9%. Same read-out and setting: then `O=C(Nc1ccc(-c2nc3ccccc3s2)c(O)c1)C1=COCCO1`, with 6.55%.

`CC(C)CNC(=S)N1CCC(Cc2ccccc2)CC1`: the cell number change is 49.4%. For the same compound, the half-maximal activity concentration (AC50) under setting [1] was 16.4 µM [rising, partial curve, poor fit]. Besides, under setting [2], the AC50 is 1.84 µM [rising, partial curve]. Take `CCOC(=O)c1c(C)n(C)c2ccc(OC)c([N+](=O)[O-])c12`: the cell number change came to 9.73%. Further, the half-maximal activity concentration (AC50) under setting [2] was 23.1 µM [rising, partial curve].

With `CCOC(=O)C(NC(=O)NCc1ccccc1)(OCC)C(F)(F)F` (stereo not drawn), the cell number change was determined as 3.2%. Moreover, the half-maximal activity concentration (AC50) under setting [1] is 3.26 µM [rising, single point].

With `O=C1CSc2ccc(S(=O)(=O)NCc3ccccc3Cl)cc2N1`, the cell number change is -31.2%. In addition, under setting [1], the AC50 was 29.1 µM [falling, single point]. For the same compound, the AC50 under setting [2] is 29.1 µM [rising, single point]. Consider `Cc1cc(-c2ccc(C)c(S(=O)(=O)NC(C)Cc3ccco3)c2)on1` (stereo not drawn), for which the cell number change is -16.3%. As for `CC(C)N1CCc2c(sc(NC(=O)c3ccc([N+](=O)[O-])o3)c2C(N)=O)C1`, the cell number change was -21.8%. The AC50 under setting [2] is 14.6 µM [falling, partial curve, poor fit]. `Cc1ccc(S(=O)(=O)Oc2cccc(/C=N/n3cnnc3)c2)cc1`: the cell number change is -2.85%. Moreover, under setting [2], the AC50 was 9.2 µM [rising, partial curve].

As for `CCCCCC(=O)Nc1c(-c2cccs2)c(=O)c2ccccc2n1C`, the cell number change was -18%.

For the compound `CCN(CC)S(=O)(=O)c1cccc(NC(=O)C(=O)c2c(-c3ccccc3)cc3ccccn23)c1`, the cell number change worked out at 50.7%. Under setting [1], the half-maximal activity concentration (AC50) was 5.8 µM [rising, full curve]. In addition, the AC50 under setting [2] is 16.4 µM [rising, partial curve]. On to `CC(C)(OC1OC(CO)C(O)C(O)C1O)[C@H]1Oc2ccc3ccc(=O)oc3c2[C@H]1O` (stereo partly drawn), for which the cell number change was -12.8%. The AC50 under setting [2] was 0.0259 µM [falling, full curve, poor fit].

For `O=C(Nc1cccc(O)c1)c1ccc(Br)cc1`, the cell number change is -14.4%. Moreover, the AC50 under setting [2] is 29.1 µM [falling, single point]. For `O=C1c2ccccc2C(=O)N1Cc1cc(Cl)c(O)c([N+](=O)[O-])c1`, the cell number change is 2.84%. For the same compound, the AC50 under setting [2] was 16.4 µM [rising, single point]. Turning to `CC1(C)CC2CC(C)(CN2C(=S)Nc2ccccc2F)C1` (stereo not drawn), the AC50 under setting [1] was 0.00461 µM [rising, full curve, poor fit]. For the compound `O=C(c1ccc(CS(=O)c2ccccc2Cl)o1)N1CCN(c2ccccc2)CC1` (stereo not drawn), the cell number change is -21.8%. Besides, the AC50 under setting [2] is 29.1 µM [falling, single point].

As for `COc1ccccc1NC(=O)c1ccc(S(=O)(=O)NCc2ccco2)cc1`, the cell number change stood at 16.7%. `CC(=O)Nc1ccc(SCCC2CCCCN2C)cc1` (stereo not drawn): the AC50 under setting [2] was 0.58 µM [falling, single point]. Regarding `COc1cc(CCC(=O)Nc2c(C(=O)N3CCN(c4ccccc4)CC3)oc3ccccc23)on1`, the cell number change came out at 19.3%. For the same compound, the AC50 under setting [2] is 0.411 µM [rising, partial curve, poor fit]. `COc1ccc(S(=O)(=O)Nc2cc3c4c(c2)CC(=O)N4CCC3)cc1C`: the cell number change was 49.2%. Under setting [1], the half-maximal activity concentration (AC50) was 14.6 µM [rising, partial curve, poor fit]. For the compound `O=C1CC(C(=O)N2CCc3ccccc32)CN1c1ccccc1` (stereo not drawn), the cell number change is -16.7%. The same measure, in the same setting: the same measure for `O=C(CSc1nnc(COc2ccc3c(c2)CCCC3)o1)Nc1ccc(F)cc1`: -23%; for `O=c1[nH]cnc2c1C(c1ccccc1[N+](=O)[O-])c1c(nc[nH]c1=O)O2`: 7.39%.

As to `CC(C)c1cc(C(=O)O)on1`, the cell number change is -17%. For the same compound, under setting [2], the concentration at half-maximal activity (AC50) is 4.61 µM [falling, single point]. In the case of `Cc1ccc(Cl)cc1N(CC(=O)Nc1cccc(N(C)S(C)(=O)=O)c1)S(C)(=O)=O`, the AC50 under setting [2] is 20.6 µM [falling, partial curve].

As to `O=C(N/N=C/c1cc2ccccc2nc1Cl)/C(=C/c1cccs1)NC(=O)c1ccccc1`, the cell number change was -14.4%. Moreover, the half-maximal activity concentration (AC50) under setting [1] is 1.16 µM [rising, partial curve]. Consider `CC(=O)N=c1sccn1CC(O)c1ccc(Br)cc1` (stereo not drawn), for which the concentration at half-maximal activity (AC50) under setting [2] is 0.731 µM [rising, full curve, poor fit]. In the case of `CCC(=O)N1CCc2cc(S(=O)(=O)NCCC(=O)N3CCc4ccccc4C3)ccc21`, the cell number change was -23.2%. The AC50 under setting [2] was 0.00517 µM [falling, full curve, poor fit]. Consider `CCS(=O)(=O)N1Cc2ccccc2CC1C(=O)Nc1ccc(OC)cc1OC` (stereo not drawn), for which the cell number change was -27%. Besides, the half-maximal activity concentration (AC50) under setting [2] was 29.1 µM [falling, single point]. With `C=C(C)COc1ccc(-c2[nH]ncc2-c2ccccc2OC)c(O)c1`, the cell number change was -57.2%. Besides, the AC50 under setting [1] is 13 µM [falling, partial curve, poor fit]. Also, the AC50 under setting [2] is 7.31 µM [falling, partial curve].

For `Cc1ccc(C)c2[nH]c(=O)c(CN(Cc3ccco3)S(=O)(=O)c3ccc4c(c3)OCCO4)cc12`, the cell number change was 1.92%. Also, under setting [2], the AC50 is 0.461 µM [rising, full curve]. In the case of `CCc1ccc(N(C(=O)CCC(=O)Nc2cc(C)on2)C(C(=O)NC(C)(C)C)c2ccc(OC)cc2)cc1` (stereo not drawn), the cell number change was 10.8%. Besides, under setting [2], the AC50 is 29.1 µM [rising, single point]. Turning to `CCC(CC)NC(=O)COC(=O)c1cc(Br)ccc1Cl`, the cell number change was -0.176%. Also, under setting [1], the AC50 was 0.651 µM [falling, full curve, poor fit].

As for `CN(c1cccc(NC(=O)c2ccc(CN3CCc4ccccc4C3)cc2)c1)S(C)(=O)=O`, the cell number change was -38.6%. Moreover, under setting [1], the concentration at half-maximal activity (AC50) is 14.6 µM [falling, partial curve]. Further, under setting [2], the AC50 was 29.1 µM [falling, single point]. Consider `Cn1c(SCc2n[nH]c(=S)n2-c2ccccc2)nnc1-c1ccccc1`, for which the AC50 was 0.13 µM [rising, full curve, poor fit] under setting [1] and 0.146 µM [rising, full curve] under setting [2]. As to `Cc1ccc(NC(=O)CSc2nc(C)c(Cc3ccccc3)c(=O)[nH]2)cc1C`, the cell number change was found to be 32.4%. Also, the AC50 under setting [2] is 6.51 µM [falling, single point]. With `COc1ccccc1CNC(=O)c1ccc2nc(N3CCOCC3)sc2c1`, the cell number change was -2.69%. In addition, the concentration at half-maximal activity (AC50) under setting [2] was 6.51 µM [rising, single point].

As to `Cc1cc(C)cc(NC(=O)COC(=O)c2cc(=O)[nH]c(=O)[nH]2)c1`, the cell number change was determined as 1.27%. For the compound `CCN(CC)c1ccc(NC(=O)/C=C/c2cc(Br)ccc2OC)cc1`, the cell number change was -26.8%. Under setting [2], the concentration at half-maximal activity (AC50) was 18.4 µM [falling, single point]. Consider `O=C(O)C1CC=CCC1C(=O)NCc1ccccc1` (stereo not drawn), for which the cell number change is -103%. Further, under setting [1], the AC50 was 18.4 µM [falling, single point]. In the case of `CCn1c(-c2csc(-c3ccccc3)n2)n[nH]c1=S`, the cell number change is -14.2%. Moreover, the AC50 under setting [2] was 0.731 µM [rising, full curve]. Take `CO/N=C/C(=N\Nc1ccc(OC)cc1)C(=O)c1ccc(OC)cc1`: the half-maximal activity concentration (AC50) under setting [2] was 6.51 µM [rising, partial curve]. As for `Cc1ccc(CNC(=O)C2CCCN(S(=O)(=O)c3ccc(-n4cnnn4)cc3)C2)cc1` (stereo not drawn), the cell number change stood at 56.4%. Further, the AC50 under setting [1] is 13 µM [rising, partial curve]. `NCCCn1c(C(=O)c2cc(Cl)c(N)c(Cl)c2)c2ccc([N+](=O)[O-])cc2[n+]1[O-]`: the cell number change is -25.5%. With `COc1ccc(-c2nnc(SC(C)C(=O)Nc3cccc(Cl)c3)o2)cc1` (stereo not drawn), the cell number change was -2.49%. Besides, the AC50 under setting [2] is 16.4 µM [rising, single point]. For `O=C(O)CCC(=O)N1CCCC1`, the cell number change came out at 37%. Under setting [1], the AC50 is 6.51 µM [rising, full curve, poor fit]. With `COc1cc([N+](=O)[O-])cc(/C=N/NC(=O)c2ccc(C)nc2)c1O`, the cell number change is -6.23%. In the case of `COC(=O)c1ccc(NC(=O)c2cccc(NC(=O)c3ccccc3)c2)cc1`, the cell number change came out at 25.4%. Consider `CCOC(=O)CNC(=O)c1cc2c(=O)[nH]c3ccc(C)cc3c2s1`, for which the cell number change is 42.6%. The AC50 under setting [1] was 0.731 µM [rising, full curve]. Turning to `CCCN(CCC)S(=O)(=O)c1ccc(C(=O)NCc2ccco2)cc1`, the cell number change was -37.5%. For the same compound, the half-maximal activity concentration (AC50) under setting [1] is 23.1 µM [falling, single point]. The AC50 under setting [2] was 29.1 µM [falling, single point]. As for `c1ccc(-c2ccccc2OCCN2CCOCC2)cc1`, the cell number change was -0.733%. Further, the half-maximal activity concentration (AC50) under setting [2] was 29.1 µM [rising, single point]. For `CC[C@@]12C(=O)N(c3cccc(C)c3)C(=O)N1[C@H](c1ccc(OC)cc1)[C@@H]1C(=O)N(C(C)(C)C)C(=O)[C@@H]12`, the cell number change was found to be 13.5%. For the same compound, the concentration at half-maximal activity (AC50) under setting [2] is 5.8 µM [rising, single point]. Turning to `NC(=O)c1cccc2c1-c1ccccc1/C2=N/NC(N)=S`, the cell number change is 3.9%. The AC50 under setting [2] was 5.8 µM [falling, full curve]. Take `Cc1ccc(Nc2ncnc3c2oc2ccccc23)cc1`: the AC50 under setting [1] was 0.103 µM [rising, full curve, poor fit] and the AC50 under setting [2] was 0.164 µM [rising, full curve, poor fit].

These data come from PubChem BioAssay AID2685 (National Center for Advancing Translational Sciences (NCATS), 2010).
